Results from PubChem BioAssay AID338 (DTP/NCI, 2004).
The list shows only some results of the screen, not a fair sample: it is rich in T/C values a quarter to a half above the control, in often repeated tests (any T/C) and in doses without a T/C. Further doses and runs are listed elsewhere. T/C: endpoint of the treated group in % of that of the vehicle group. Some doses have a count of surviving animals in place of a T/C: the source files T/C as zero there, which appears to mark a toxic dose or a test without result, not a measured value. Some survivor counts are full or nearly so, which does not show that the dose was tolerated: survival well below the control is almost never listed, so the zero probably covers shortened survival too. Survivors were counted at the toxicity check, usually on the fifth day, unless a day is given; later deaths do not show. Schedule codes are those of the source, taken here to give the interval after Q, in days (D) or hours (H), and the number of doses after X. Some doses were run more than once; the results are listed from low to high. Some schedule codes hold Z or #, which are not explained here. Some structures stand for samples that the source files as different forms (salt, stereo form or complex); doses refer to the form tested. Where survival is the endpoint, this PubChem deposit counts one and a half times the control or more as active, and values a quarter to a half above the control carry no call in these data; other NCI protocols may use other cut-offs. Marks such as (2×) count equal records among those shown.

Tested on: BDF1 mice, P388 leukemia (terephthalanilide-resistant), survival T/C
Assay: NCI In Vivo Anticancer Drug Screen. Data for tumor model P388 Leukemia resistant to A Terephthalanilide; NSC 38280 (intraperitoneal) in B6D2F1 (BDF1) mice
Conditions: T/C endpoint: median survival time, higher T/C = longer survival
Procedure: The antitumor activity of compounds was measured in mice bearing transplantable tumors. Survival or tumor size were measured and the results are expressed as the measurement made in the treated group (T) divided by the measurement made in the vehicle treated control group (C). The tumor model used in this assay is P388 Leukemia resistant to A Terephthalanilide; NSC 38280 (intraperitoneal) in B6D2F1 (BDF1) mice

[1] = dose: 4.0 mg/kg/injection, schedule: Q01DX010 (ip), vehicle: saline
[2] = dose: 8.0 mg/kg/injection, schedule: Q01DX010 (ip), vehicle: saline
[3] = dose: 16.0 mg/kg/injection, schedule: Q01DX010 (ip), vehicle: saline
[4] = dose: 5.0 mg/kg/injection, schedule: Q01DX010 (ip), vehicle: saline
[5] = dose: 40.0 mg/kg/injection, schedule: Q01DX010 (ip), vehicle: saline
[6] = dose: 80.0 mg/kg/injection, schedule: Q01DX010 (ip), vehicle: saline

Compound: S=c1nc[nH]c2nc[nH]c12
- T/C (dose: 40.0 mg/kg/injection, schedule: Q01DX Z (ip), vehicle: saline): 127 % of control
- T/C (dose: 80.0 mg/kg/injection, schedule: Q01DX010 (ip), vehicle: alkali diluted with saline): 133 % of control
- T/C (dose: 80.0 mg/kg/injection, schedule: Q01DX Z (ip), vehicle: saline): 127 % of control

Compound: CC(=O)N(C)C
- survivor count (dose: 125.0 mg/kg/injection, schedule: Q01DX010 (ip), vehicle: saline): 6 of 6
- survivor count (dose: 250.0 mg/kg/injection, schedule: Q01DX010 (ip), vehicle: saline): 6 of 6

Compound: CS(=O)(=O)OCCN(CCOS(C)(=O)=O)c1ccc(N=O)cc1
- survivor count [1]: 5 of 6 and 6 of 6
- survivor count [2]: 5 of 6
- survivor count [3]: 0 of 6

Compound: Nc1nc(=S)c2ncn(C3OC(CO)C(O)C3O)c2[nH]1 (stereo unspecified)
- T/C (dose: 2.0 mg/kg/injection, schedule: Q01DX010 (ip), vehicle: saline): 140 % of control
- T/C [1]: 125 % of control
- survivor count [2]: 6 of 6
- survivor count [3]: 6 of 6

Compound: [I][Hg][CH2]C1COC([CH2][Hg][I])CO1 (stereo unspecified)
- survivor count (dose: 6.25 mg/kg/injection, schedule: Q01DX010 (ip), vehicle: saline): 6 of 6

Compound: C1CN1c1nc(N2CC2)nc(N2CC2)n1
- T/C (dose: 0.5 mg/kg/injection, schedule: Q01DX010 (ip), vehicle: saline): 135 % of control
- survivor count (dose: 1.0 mg/kg/injection, schedule: Q01DX010 (ip), vehicle: saline): 6 of 6

Compound: NC(Cc1ccc(N(CCCl)CCCl)cc1)C(=O)O (stereo unspecified)
- T/C (dose: 1.25 mg/kg/injection, schedule: Q01DX010 (ip), vehicle: saline): 140 % of control
- T/C (dose: 2.5 mg/kg/injection, schedule: Q01DX010 (ip), vehicle: saline): 140 % of control
- survivor count [4]: 6 of 6
- survivor count (dose: 8.0 mg/kg/injection, schedule: Q01DX010 (ip), vehicle: other): 6 of 6
- survivor count (dose: 10.0 mg/kg/injection, schedule: Q01DX010 (ip), vehicle: saline): 6 of 6
- survivor count (dose: 16.0 mg/kg/injection, schedule: Q01DX010 (ip), vehicle: other): 6 of 6

Compound: C[C@@H]1C[C@@H]([C@H](O)CC2CC(=O)NC(=O)C2)C(=O)[C@@H](C)C1
- T/C [5]: 125 % of control

Compound: NC(=O)N(CCCl)N=O
- survivor count [1]: 6 of 6

Compound: C[C@]12C=CC(=O)C=C1CC[C@@H]1[C@@H]2C(=O)C[C@@]2(C)[C@H]1CC[C@]2(O)C(=O)CO
- survivor count (dose: 12.5 mg/kg/injection, schedule: Q01DX010 (sc), vehicle: steroid suspending solution): 6 of 6
- survivor count (dose: 50.0 mg/kg/injection, schedule: Q01DX010 (sc), vehicle: steroid suspending solution): 6 of 6
- survivor count (dose: 100.0 mg/kg/injection, schedule: Q01DX Z (sc), vehicle: steroid suspending solution): 6 of 6
- survivor count (dose: 200.0 mg/kg/injection, schedule: Q01DX Z (sc), vehicle: steroid suspending solution): 5 of 6 and 6 of 6

Compound: OCC1OC(n2cnc3c(=S)nc[nH]c32)C(O)C1O (stereo unspecified)
- survivor count [6]: 6 of 6
- T/C (dose: 160.0 mg/kg/injection, schedule: Q01DX010 (ip), vehicle: saline): 138 % of control

Compound: Nc1nc(N)c2nc(CNc3ccc(C(=O)NC(CCC(=O)O)C(=O)O)cc3)cnc2n1 (stereo unspecified)
- T/C (dose: 100.0 micrograms/kg/injection, schedule: Q01DX010 (ip), vehicle: other): 125 % of control

Compound: O=c1[nH]cc(F)c(=O)[nH]1
- T/C [4]: 144 % of control

Compound: CN(C)c1ccc(/C=C\c2ccnc3ccccc23)cc1
- survivor count (dose: 3.0 mg/kg/injection, schedule: Q01DX010 (ip), vehicle: saline): 6 of 6
- survivor count (dose: 6.0 mg/kg/injection, schedule: Q01DX010 (ip), vehicle: saline): 6 of 6

Compound: C[n+]1c2ccccc2nc2c(N)cc(N)cc21
- survivor count [5]: 0 of 6

Compound: Nc1nc(SCc2ccccc2)c2[nH]cnc2n1
- T/C (dose: 32.0 mg/kg/injection, schedule: Q01DX010 (ip), vehicle: saline): 133 % of control

Compound: O=C(Nc1ccc(NC2=NCCN2)cc1)c1ccc(C(=O)Nc2ccc(NC3=NCCN3)cc2)cc1
- T/C [1]: 125 % of control
- T/C [3]: 137 % of control (2×)

Compound: O=P1(N(CCCl)CCCl)NCCCO1 (stereo unspecified)
- T/C (dose: 22.5 mg/kg/injection, schedule: Q01DX010 (ip), vehicle: saline): 138 % of control
- T/C (dose: 90.0 mg/kg/injection, schedule: Q01DX005 (ip), vehicle: saline): 145 % of control
- survivor count (dose: 180.0 mg/kg/injection, schedule: Q01DX005 (ip), vehicle: saline): 6 of 6

Compound: CC1CCOS(=O)O1 (stereo unspecified)
- survivor count [6]: 6 of 6
